Experimental findings from paper PMC12681845 are described below.

Amino acid sequences for entries named in this document (tags omitted).
UniProt Q8N6T7: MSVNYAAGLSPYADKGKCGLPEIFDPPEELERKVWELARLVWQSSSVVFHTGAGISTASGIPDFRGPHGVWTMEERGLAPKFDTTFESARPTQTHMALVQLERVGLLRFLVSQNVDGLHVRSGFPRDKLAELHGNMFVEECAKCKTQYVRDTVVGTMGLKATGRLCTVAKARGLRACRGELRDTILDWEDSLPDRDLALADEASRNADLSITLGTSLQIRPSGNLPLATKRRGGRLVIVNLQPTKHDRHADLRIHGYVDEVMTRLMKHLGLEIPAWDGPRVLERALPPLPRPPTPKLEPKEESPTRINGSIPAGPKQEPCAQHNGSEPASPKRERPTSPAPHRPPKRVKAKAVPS

These are yes or no findings as the source states them, for the method shown. In cells and extracts the contact can be indirect. These calls come from enrichment with a bait or labelling near it, and not all partners need be listed.

The assay has as its target NAD-dependent protein deacylase sirtuin-6 (human (endogenous in HCT116)) (UniProt Q8N6T7). Kind of assay: affinity purification with mass spectrometry; Co-IP of SIRT6; eluates digested in-gel with trypsin, LC-MS/MS (Novogene); cell line not stated.

B1: Hepatocyte nuclear factor 3-alpha (protein, UniProt P55317 1-472)
chain: MLGTVKMEGHETSDWNSYYADTQEAYSSVPVSNMNSGLGSMNSMNTYMTMNTMTTSGNMTPASFNMSYANPGLGAGLSPGAVAGMPGGSAGAMNSMTAAGVTAMGTALSPSGMGAMGAQQAASMNGLGPYAAAMNPCMSPMAYAPSNLGRSRAGGGGDAKTFKRSYPHAKPPYSYISLITMAIQQAPSKMLTLSEIYQWIMDLFPYYRQNQQRWQNSIRHSLSFNDCFVKVARSPDKPGKGSYWTLHPDSGNMFENGCYLRRQKRFKCEKQPGAGGGGGSGSGGSGAKGGPESRKDPSGASNPSADSPLHRGVHGKTGQLEGAPAPGPAASPQTLDHSGATATGGASELKTPASSTAPPISSGPGALASVPASHPAHGLAPHESQLHLKGDPHYSFNHPFSINNLMSSSEQQHKLDFKAYEQALQYSPYGSTLPASLPLGSASVTTRSPIEPSALEPAYYQGVYSRPVLNTS
As for B1, the binding result is reported as “binds”.

B2: Transcription factor A, mitochondrial (protein, UniProt Q00059 43-246)
chain: SSVLASCPKKPVSSYLRFSKEQLPIFKAQNPDAKTTELIRRIAQRWRELPDSKKKIYQDAYRAEWQVYKEEISRFKEQLTPSQIMSLEKEIMDKHLKRKAMTKKKELTLLGKPKRPRSAYNVYVAERFQEAKGDSPQEKLKTVKENWKNLSDSEKELYIQHAKEDETRYHNEMKSWEEQMIEVGRKDLLRRTIKKQRKYGAEEC
Regarding B2, the binding result was “binds”.
